Laboratory results reported in publication PMC9917868.
No constants are given. Whether binding was seen depends on the method and setting. Binding seen in cells or lysates may run through a third protein. A result given as binding can be weak or reduced; the word gives no strength.

Biological target: T1, proNRG2, endogenous in mouse whole brain (mouse (endogenous in whole brain)) (UniProt P56974)
T1 sequence: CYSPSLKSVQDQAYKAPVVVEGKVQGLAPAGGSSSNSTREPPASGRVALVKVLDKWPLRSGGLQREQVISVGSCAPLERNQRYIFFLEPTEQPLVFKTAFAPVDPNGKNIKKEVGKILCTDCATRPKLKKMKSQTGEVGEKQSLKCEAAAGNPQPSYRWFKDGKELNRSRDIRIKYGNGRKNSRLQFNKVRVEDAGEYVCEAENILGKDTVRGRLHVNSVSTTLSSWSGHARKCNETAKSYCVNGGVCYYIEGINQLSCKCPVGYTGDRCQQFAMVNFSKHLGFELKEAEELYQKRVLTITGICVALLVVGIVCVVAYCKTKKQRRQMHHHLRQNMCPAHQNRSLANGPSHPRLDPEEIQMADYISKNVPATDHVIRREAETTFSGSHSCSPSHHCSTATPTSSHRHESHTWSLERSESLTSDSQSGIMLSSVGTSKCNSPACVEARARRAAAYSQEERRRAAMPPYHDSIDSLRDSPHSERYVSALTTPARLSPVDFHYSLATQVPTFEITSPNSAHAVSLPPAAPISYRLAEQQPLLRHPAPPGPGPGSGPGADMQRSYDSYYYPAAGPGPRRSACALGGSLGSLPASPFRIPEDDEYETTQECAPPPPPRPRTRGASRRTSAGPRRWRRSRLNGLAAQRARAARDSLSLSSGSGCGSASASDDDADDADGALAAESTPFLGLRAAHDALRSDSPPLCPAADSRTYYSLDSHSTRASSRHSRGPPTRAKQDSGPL
Assay: co-IP; IP with a rabbit polyclonal antibody against the NRG2 extracellular domain (ABN1654) from mouse whole brain lysates; control normal rabbit IgG; Western blot

- binding: binds
Substance: VAP, endogenous in mouse whole brain
